Data published in paper PMC9507967.
These are yes or no findings as the source states them, for the method shown. In cells and extracts the contact can be indirect. Some results given as binding are weak or reduced against the parent protein; the word gives no strength. Tags and fused reporters may be left off the sequences shown.

T1: Lem2 fused to green fluorescent protein (Lem2-GFP), expressed from the endogenous locus (S. pombe), Q10109
T1 chain: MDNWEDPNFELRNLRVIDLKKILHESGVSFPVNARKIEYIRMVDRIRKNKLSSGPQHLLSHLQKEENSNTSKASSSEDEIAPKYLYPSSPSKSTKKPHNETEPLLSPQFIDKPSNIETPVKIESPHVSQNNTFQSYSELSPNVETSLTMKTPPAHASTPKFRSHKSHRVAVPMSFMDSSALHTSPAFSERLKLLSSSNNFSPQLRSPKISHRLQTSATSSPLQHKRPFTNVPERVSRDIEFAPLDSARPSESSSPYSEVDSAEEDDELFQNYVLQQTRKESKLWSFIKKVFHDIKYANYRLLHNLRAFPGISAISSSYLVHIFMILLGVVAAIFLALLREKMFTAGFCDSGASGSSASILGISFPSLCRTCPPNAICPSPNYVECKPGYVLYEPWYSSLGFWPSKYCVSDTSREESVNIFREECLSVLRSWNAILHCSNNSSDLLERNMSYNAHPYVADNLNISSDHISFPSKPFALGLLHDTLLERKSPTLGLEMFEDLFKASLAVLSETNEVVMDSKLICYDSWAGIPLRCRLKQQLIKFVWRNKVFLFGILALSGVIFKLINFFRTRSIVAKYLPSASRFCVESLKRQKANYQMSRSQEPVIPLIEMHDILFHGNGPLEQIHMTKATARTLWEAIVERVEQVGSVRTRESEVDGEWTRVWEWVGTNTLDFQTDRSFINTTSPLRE

T2: GFP-Mmi1, expressed from the endogenous locus (S. pombe) (UniProt O74958)
T2 sequence: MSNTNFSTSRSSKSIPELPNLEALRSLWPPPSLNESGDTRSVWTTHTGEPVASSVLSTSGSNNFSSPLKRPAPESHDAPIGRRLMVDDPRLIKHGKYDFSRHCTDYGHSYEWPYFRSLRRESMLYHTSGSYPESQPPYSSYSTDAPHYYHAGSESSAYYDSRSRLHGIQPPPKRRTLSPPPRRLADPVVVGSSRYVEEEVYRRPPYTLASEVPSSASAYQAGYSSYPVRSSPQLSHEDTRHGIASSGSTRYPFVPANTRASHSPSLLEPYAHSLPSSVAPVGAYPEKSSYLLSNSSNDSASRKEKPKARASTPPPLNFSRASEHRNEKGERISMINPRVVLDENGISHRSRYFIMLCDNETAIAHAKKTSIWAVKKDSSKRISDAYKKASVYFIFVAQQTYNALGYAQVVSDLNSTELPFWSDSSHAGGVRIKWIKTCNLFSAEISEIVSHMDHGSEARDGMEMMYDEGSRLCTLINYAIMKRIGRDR

B1: Red1 tagged with 6 copies of the hemagglutinin epitope (Red1-6xHA), expressed from the endogenous locus, Q9UTR8 1-712 (protein)
chain: MSRSINLDELRKKALESKKKNEEDESNDSDKEDGEISEDDPVIDQSNSVPPMKVPTFPEQIPQLPPFDRFPGTNANFFPFGAPFMLPPALMFGPNTVPFFPQTASSNKTFSKRKRSSENSFNNRNKAKSSETSDSSNTSQSFKENRALKDTATSRPLALSSDTSYQKSEKAKSEKSPFLSTSKNSDANYSKTTNQKEAEKAVSQLFEVGVRFNDFIAEGIEPSVVHTLFLKLGLDSSSASSQGSLTLSADKAARSAKLRKIDSNLSDTHILPGDNGTPTVLPERKNLISLPLLKQDDWLSSSKPFGSSTPNVVIEFDSDDDGDDFSNSKIEQSNLEKPPSNSENGLTMSRSDYLALLRNKEEEIRRMTKLILRLESNKKPYRSPTSAADMKLPSVPVAAVDNKSKTHLDTFEKVVDLSSKADFVEAGPSISSSGASSSAATTNSDTTEQILEAPWLRKTEQIAVVHEEHPAQIKKSEIDILNNLIEKEEGELTKYQTLVKSKTEILTQLYTRKKQLLEQQGKGNVACLPKESDLSMDSITEVSAQADENSSQILSSKTSNAPNGTTETDFEDKVPLVDYISPFYRFKSYRFNQQFVERVPLKYRSLTYSNKIEPMKVFCKYETTGGVCNDDHCEASHFRDIKMTDDEIIQDLSRYIEGNDEIEKESYKSGLDIVMKNTDENTDFVDVATRIVEYHNLWKSERMTIPVAKVSI
B2: Red1 tagged with 6 copies of the hemagglutinin epitope (Red1-6xHA), expressed from the endogenous locus (protein, UniProt Q9UTR8 1-712)
chain: B1 chain

Assays:
[1] = molecular target: T1, Lem2 fused to green fluorescent protein …; assay: co-IP; S. pombe lysates, proteins expressed from their endogenous loci; GFP-Trap, 1.5 hours at 4 °C; lysis buffer 50 mM HEPES pH 7.4, 100 mM NaCl, 10% glycerol, 1 mM EDTA, 2.5 mM MgCl2, 0.5% NP-40; bound material untreated or treated with RNase or benzonase (Lem2-GFP); WT or lem2∆ background (GFP-Mmi1); immunoblot; conditions: remark: other sources report otherwise
[2] = molecular target: T2, GFP-Mmi1, expressed from the endogenous locus (S. pombe); assay: as above

Row | Binder | binding [1] | binding [2]
1 | B1 | binds | –
2 | B2 | – | binds
